Results reported in patent US20220356211A1.
No constants are given. Whether binding was seen depends on the method and setting. Some binding calls cover weakened binding; strength is not graded here. For some assays here: Sequences can lack the tags named with a protein.

The chains behind the UniProt entries cited, without tags or fusion partners. Where a name states a change or a piece, a line headed by the entry shows the natural chain unless it says otherwise.
UniProt P06756: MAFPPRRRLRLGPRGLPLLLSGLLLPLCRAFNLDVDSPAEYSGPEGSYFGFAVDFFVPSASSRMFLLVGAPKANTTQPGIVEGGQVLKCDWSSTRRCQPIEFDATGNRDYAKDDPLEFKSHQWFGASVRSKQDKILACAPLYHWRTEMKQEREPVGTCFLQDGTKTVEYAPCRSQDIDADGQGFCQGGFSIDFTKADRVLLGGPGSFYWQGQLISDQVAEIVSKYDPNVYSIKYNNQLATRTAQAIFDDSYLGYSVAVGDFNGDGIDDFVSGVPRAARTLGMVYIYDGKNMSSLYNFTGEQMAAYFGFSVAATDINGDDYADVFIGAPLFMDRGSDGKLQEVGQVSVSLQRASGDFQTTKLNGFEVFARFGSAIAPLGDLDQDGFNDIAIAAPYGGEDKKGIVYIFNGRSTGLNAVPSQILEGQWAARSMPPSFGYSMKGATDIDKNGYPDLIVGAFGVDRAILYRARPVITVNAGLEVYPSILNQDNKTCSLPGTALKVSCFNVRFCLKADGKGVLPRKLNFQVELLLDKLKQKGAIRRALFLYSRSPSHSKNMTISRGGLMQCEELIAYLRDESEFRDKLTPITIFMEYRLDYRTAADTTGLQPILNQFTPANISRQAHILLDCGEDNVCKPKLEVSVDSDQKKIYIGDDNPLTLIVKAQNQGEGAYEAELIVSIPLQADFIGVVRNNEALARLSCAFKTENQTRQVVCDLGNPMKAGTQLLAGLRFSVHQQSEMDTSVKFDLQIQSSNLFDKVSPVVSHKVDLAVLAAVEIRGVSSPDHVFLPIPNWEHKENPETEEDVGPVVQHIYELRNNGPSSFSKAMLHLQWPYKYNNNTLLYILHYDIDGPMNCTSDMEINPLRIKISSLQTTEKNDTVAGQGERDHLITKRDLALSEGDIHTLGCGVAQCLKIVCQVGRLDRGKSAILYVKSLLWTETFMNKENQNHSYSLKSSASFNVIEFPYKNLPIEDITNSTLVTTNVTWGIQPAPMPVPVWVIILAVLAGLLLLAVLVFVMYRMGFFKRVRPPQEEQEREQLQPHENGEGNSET

Key:
[1] = target: T1, wild-type MD2 (Myeloid Differentiation factor 2) with 6xHis tag, recombinant, made in bacteria (human) (UniProt Q9Y6Y9); assay: ELISA-type binding assay; cation-dependent, blocked by heating MD2 (80° C. for 10 min)
T1 sequence: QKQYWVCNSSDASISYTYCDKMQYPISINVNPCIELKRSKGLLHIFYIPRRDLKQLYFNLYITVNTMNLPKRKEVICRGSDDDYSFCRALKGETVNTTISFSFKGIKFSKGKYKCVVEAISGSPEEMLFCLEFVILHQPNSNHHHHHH

[2] = target: T1, wild-type MD2 (Myeloid Differentiation factor 2) with 6xHis tag, recombinant, made in bacteria (human); assay: ELISA-type binding assay (preliminary studies)
[3] = target: T1, wild-type MD2 (Myeloid Differentiation factor 2) with 6xHis tag, recombinant, made in bacteria (human); assay: ELISA-type binding assay
[4] = target: T1, wild-type MD2 (Myeloid Differentiation factor 2) with 6xHis tag, recombinant, made in bacteria (human); assay: ELISA-type binding assay, WT MD2 coated, soluble αvβ3 5 µg/ml with 1 mM MnCl2, anti-His HRP detection
[5] = target: T2, MD2 K130E-K132E mutant (human) (UniProt Q9Y6Y9); assay: ELISA-type binding assay, MD2 mutant coated, soluble αvβ3
T2 sequence: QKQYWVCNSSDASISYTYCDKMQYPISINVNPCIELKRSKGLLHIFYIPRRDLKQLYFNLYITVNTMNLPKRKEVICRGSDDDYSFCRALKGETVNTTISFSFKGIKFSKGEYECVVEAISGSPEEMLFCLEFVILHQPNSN

Measured: binding

recombinant soluble integrin αvβ3 (from UniProt P06756 31-992; P05106 27-718) (receptor)
binds: [1] | [2] | [3] | [4] | [5]
